PubChem BioAssay AID1224830 – NIAID | 2016

Screen: 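Regulators of TLR4 signalling towards TNF-alpha in macrophage-like cells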 (primary screen)
Cell system: human THP-1 monocytic leukaemia cells, TNF dual-luciferase reporter clone, PMA-differentiated to macrophage-like cells
Reagents: siRNA pool against human genes, 50 nM
Time to read-out: LPS for 4 h, given about 3 days after siRNA transfection
Treatment: bacterial LPS (TLR4 ligand), 10 ng/ml
Read-out: 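Ratio of firefly to renilla light, scaled to the plate median and expressed as a robust z-score per replicate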
Reading the numbers: TNF reporter robust z-score: higher = stronger TNF reporter response to LPS
Active means: 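a well is active when its z-score exceeds 2.8 or falls below -1.5; control wells carry no call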
Shown is one part, drawn at random, of about 18,000 reagents. Of all reagents, about 2,900 (16%) were called active. 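Calls are made per well; low scores hint the gene aids the LPS response, high scores that it dampens it.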 Repeated entries: four replicate wells of each siRNA pool.

The first 16 records, ahead of the listing:
gene | TNF reporter robust z-score | Outcome
KLF12 | 3.31 | active
KLF12 | 5.09 | active
KLF12 | 2.19 | inactive
KLF12 | 3.16 | active
SGPL1 | -1.18 | inactive
SGPL1 | -0.66 | inactive
SGPL1 | -1.4 | inactive
SGPL1 | -1.04 | inactive
ENAH | – | inactive
ENAH | -0.67 | inactive
ENAH | -0.61 | inactive
ENAH | -0.47 | inactive
ENAH | -0.59 | inactive
DEPDC5 | -0.72 | inactive
DEPDC5 | -0.7 | inactive
DEPDC5 | -1.64 | active

The list itself, from the first entry:
gene | TNF reporter robust z-score | Outcome
KLF12 | 3.31 | active
KLF12 | 5.09 | active
KLF12 | 2.19 | inactive
KLF12 | 3.16 | active
SGPL1 | -1.18 | inactive
SGPL1 | -0.66 | inactive
SGPL1 | -1.4 | inactive
SGPL1 | -1.04 | inactive
ENAH | – | inactive
ENAH | -0.67 | inactive
ENAH | -0.61 | inactive
ENAH | -0.47 | inactive
ENAH | -0.59 | inactive
DEPDC5 | -0.72 | inactive
DEPDC5 | -0.7 | inactive
DEPDC5 | -1.64 | active
DEPDC5 | -0.38 | inactive
NXPE2 | 0.31 | inactive
NXPE2 | 0.53 | inactive
NXPE2 | -0.58 | inactive
NXPE2 | -0.21 | inactive
LAMTOR1 | -0.71 | inactive
LAMTOR1 | 0.69 | inactive
LAMTOR1 | 1.19 | inactive
LAMTOR1 | 1.35 | inactive
CLPSL1 | -1.38 | inactive
CLPSL1 | -0.55 | inactive
CLPSL1 | -0.52 | inactive
CLPSL1 | 0.78 | inactive
PABIR2 | -1.18 | inactive
PABIR2 | -1.42 | inactive
PABIR2 | -1.09 | inactive
PABIR2 | -1.15 | inactive
RANGRF | 0.87 | inactive
RANGRF | 1.63 | inactive
RANGRF | 2.02 | inactive
RANGRF | 4.08 | active
PACSIN1 | -1.37 | inactive
PACSIN1 | -1.35 | inactive
PACSIN1 | -1.51 | active
PACSIN1 | -1.08 | inactive
OLIG2 | -1.09 | inactive
OLIG2 | -0.8 | inactive
OLIG2 | -1.33 | inactive
OLIG2 | -0.98 | inactive
NLRP9 | -0.61 | inactive
NLRP9 | -0.94 | inactive
NLRP9 | 0.68 | inactive
NLRP9 | -1.28 | inactive
UFC1 | -0.17 | inactive
UFC1 | 1.29 | inactive
UFC1 | -0.16 | inactive
UFC1 | -0.44 | inactive
LRRC14B | -0.13 | inactive
LRRC14B | 0.53 | inactive
LRRC14B | 1.24 | inactive
LRRC14B | -0.83 | inactive
LARP1 | 0.32 | inactive
LARP1 | -0.45 | inactive
LARP1 | -0.31 | inactive
LARP1 | -0.5 | inactive
RBMX2 | 1.3 | inactive
RBMX2 | 1.8 | inactive
RBMX2 | 0.91 | inactive
RBMX2 | 1.82 | inactive
TSHR | 0.98 | inactive
TSHR | 0.12 | inactive
TSHR | 0.34 | inactive
TSHR | 2.51 | inactive
NMRAL1 | 0 | inactive
NMRAL1 | 0.67 | inactive
NMRAL1 | -1.21 | inactive
NMRAL1 | -1.15 | inactive
PON2 | -0.32 | inactive
PON2 | -0.16 | inactive
PON2 | -0.49 | inactive
PON2 | 0.74 | inactive
ADGRE1 | 0.5 | inactive
ADGRE1 | -0.06 | inactive
ADGRE1 | 0.42 | inactive
ADGRE1 | 0.08 | inactive
SATB2 | 1.31 | inactive
SATB2 | 0.83 | inactive
SATB2 | 0.21 | inactive
SATB2 | 0.17 | inactive
MUC1 | -0.81 | inactive
MUC1 | 0.09 | inactive
MUC1 | -0.35 | inactive
MUC1 | -0.07 | inactive
MKNK2 | -0.66 | inactive
MKNK2 | 0.37 | inactive
MKNK2 | 0.21 | inactive
MKNK2 | 0.3 | inactive
RIPOR3 | -0.96 | inactive
RIPOR3 | 1.18 | inactive
RIPOR3 | 0.77 | inactive
RIPOR3 | 2.43 | inactive
APCDD1L | -0.11 | inactive
APCDD1L | 0.14 | inactive
APCDD1L | -1.23 | inactive
APCDD1L | -0.34 | inactive
CTDSPL2 | -1.46 | inactive
CTDSPL2 | -0.49 | inactive
CTDSPL2 | -1.41 | inactive
CTDSPL2 | -0.25 | inactive
AMER1 | -0.55 | inactive
AMER1 | 1.5 | inactive
AMER1 | -0.68 | inactive
AMER1 | 1.91 | inactive
ADGRE3 | -0.5 | inactive
ADGRE3 | 0.44 | inactive
ADGRE3 | 0.13 | inactive
ADGRE3 | -1.29 | inactive
DNAJC4 | 1.24 | inactive
DNAJC4 | 0.97 | inactive
DNAJC4 | 2.23 | inactive
DNAJC4 | 1.86 | inactive
MTNR1B | -1.15 | inactive
MTNR1B | -0.25 | inactive
MTNR1B | -0.61 | inactive
MTNR1B | -0.91 | inactive
ABCA10 | 0.88 | inactive
ABCA10 | -0.33 | inactive
ABCA10 | -0.76 | inactive
ABCA10 | 0.69 | inactive
KCND2 | -0.78 | inactive
KCND2 | 0.31 | inactive
KCND2 | -0.06 | inactive
KCND2 | 0.06 | inactive
PRL | -0.7 | inactive
PRL | -0.78 | inactive
PRL | -0.99 | inactive
PRL | -0.08 | inactive
CASP5 | -0.41 | inactive
CASP5 | -0.12 | inactive
CASP5 | -0.46 | inactive
CASP5 | -0.14 | inactive
ORAI3 | -1.12 | inactive
ORAI3 | -1 | inactive
ORAI3 | -1.44 | inactive
ORAI3 | -0.76 | inactive
